In the supplement of paper PMC10849652:
The list shows a part of the results.

Amino acid sequences for entries named in this document (tags omitted). A change or cut given only in a name is not applied to a line headed by its entry.
UniProt Q9H3K6: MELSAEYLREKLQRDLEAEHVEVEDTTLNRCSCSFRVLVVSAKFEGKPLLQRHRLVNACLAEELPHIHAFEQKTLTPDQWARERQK
UniProt Q6PJG6: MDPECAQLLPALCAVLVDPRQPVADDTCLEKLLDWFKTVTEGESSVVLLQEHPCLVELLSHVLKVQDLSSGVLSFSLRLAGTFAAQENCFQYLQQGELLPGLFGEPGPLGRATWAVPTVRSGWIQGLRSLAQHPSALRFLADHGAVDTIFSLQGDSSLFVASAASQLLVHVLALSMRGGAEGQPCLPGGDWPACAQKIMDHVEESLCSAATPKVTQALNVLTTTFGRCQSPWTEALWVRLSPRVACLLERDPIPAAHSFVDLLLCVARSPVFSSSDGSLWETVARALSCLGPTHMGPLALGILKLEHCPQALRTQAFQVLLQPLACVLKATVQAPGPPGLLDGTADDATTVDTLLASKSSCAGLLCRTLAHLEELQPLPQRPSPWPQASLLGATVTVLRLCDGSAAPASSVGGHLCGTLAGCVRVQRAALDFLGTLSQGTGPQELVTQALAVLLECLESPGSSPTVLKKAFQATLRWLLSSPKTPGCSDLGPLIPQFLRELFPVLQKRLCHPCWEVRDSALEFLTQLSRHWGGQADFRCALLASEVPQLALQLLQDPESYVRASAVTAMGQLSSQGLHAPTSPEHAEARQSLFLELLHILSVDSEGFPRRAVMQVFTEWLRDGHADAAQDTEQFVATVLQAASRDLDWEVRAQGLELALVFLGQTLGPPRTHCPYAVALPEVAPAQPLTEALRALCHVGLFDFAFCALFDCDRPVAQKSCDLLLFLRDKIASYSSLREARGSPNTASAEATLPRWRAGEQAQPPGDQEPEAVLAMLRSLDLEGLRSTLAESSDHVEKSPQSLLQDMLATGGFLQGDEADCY
UniProt Q9H0E9, whole entry, looked up: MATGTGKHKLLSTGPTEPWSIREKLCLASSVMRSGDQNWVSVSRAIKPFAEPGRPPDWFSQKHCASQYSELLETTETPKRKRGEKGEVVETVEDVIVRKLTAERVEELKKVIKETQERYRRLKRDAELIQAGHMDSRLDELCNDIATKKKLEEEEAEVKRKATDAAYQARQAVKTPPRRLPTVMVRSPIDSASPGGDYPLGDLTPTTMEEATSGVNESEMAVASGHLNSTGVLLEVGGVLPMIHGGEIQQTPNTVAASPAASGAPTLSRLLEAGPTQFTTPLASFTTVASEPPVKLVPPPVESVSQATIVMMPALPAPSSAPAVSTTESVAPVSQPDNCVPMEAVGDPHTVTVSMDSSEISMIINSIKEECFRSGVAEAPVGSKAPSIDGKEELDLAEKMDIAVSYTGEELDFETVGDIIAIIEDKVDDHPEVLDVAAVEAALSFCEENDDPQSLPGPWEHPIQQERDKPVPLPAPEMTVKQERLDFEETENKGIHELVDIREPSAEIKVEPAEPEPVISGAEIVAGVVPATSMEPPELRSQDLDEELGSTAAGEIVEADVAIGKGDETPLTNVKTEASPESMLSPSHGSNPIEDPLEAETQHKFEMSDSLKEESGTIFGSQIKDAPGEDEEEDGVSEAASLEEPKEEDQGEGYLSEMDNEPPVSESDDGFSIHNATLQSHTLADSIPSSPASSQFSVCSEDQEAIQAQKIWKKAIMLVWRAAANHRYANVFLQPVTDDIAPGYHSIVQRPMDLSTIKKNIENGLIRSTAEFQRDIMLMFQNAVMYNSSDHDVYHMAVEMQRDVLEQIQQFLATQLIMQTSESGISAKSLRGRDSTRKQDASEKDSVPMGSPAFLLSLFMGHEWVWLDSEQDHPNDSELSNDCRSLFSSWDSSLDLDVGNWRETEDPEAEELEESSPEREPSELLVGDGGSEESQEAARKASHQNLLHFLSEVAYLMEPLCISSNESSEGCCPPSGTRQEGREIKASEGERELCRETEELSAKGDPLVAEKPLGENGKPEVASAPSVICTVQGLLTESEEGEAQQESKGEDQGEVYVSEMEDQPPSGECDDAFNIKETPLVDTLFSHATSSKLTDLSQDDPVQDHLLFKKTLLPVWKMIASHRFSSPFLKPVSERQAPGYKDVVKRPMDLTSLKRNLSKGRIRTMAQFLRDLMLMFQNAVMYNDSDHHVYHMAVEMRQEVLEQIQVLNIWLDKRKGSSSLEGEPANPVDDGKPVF
UniProt P15056, whole entry, looked up: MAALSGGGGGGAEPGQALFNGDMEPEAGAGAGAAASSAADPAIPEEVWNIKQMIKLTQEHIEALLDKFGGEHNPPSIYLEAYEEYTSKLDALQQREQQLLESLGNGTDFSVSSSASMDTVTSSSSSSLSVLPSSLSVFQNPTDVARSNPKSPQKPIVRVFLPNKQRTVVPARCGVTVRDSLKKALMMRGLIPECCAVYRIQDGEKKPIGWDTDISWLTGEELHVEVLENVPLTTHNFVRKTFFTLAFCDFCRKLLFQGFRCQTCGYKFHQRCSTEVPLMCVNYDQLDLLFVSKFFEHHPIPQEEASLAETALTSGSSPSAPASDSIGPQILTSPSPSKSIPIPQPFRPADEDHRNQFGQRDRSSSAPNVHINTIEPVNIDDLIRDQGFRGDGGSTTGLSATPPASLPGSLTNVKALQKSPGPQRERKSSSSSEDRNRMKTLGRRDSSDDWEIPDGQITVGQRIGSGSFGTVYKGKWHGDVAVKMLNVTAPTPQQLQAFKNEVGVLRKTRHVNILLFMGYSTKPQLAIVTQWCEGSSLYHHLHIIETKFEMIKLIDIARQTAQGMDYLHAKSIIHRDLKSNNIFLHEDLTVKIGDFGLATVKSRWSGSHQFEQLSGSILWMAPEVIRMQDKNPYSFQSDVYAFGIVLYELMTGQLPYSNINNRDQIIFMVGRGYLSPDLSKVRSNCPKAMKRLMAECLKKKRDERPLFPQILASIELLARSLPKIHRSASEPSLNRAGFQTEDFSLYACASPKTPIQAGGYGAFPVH
UniProt P51572: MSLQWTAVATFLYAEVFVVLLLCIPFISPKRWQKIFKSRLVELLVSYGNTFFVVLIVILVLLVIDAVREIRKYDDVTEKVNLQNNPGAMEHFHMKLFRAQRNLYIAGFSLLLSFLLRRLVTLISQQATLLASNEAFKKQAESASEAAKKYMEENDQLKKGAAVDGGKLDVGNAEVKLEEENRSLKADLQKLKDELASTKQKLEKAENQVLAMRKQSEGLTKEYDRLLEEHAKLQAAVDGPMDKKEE
UniProt Q9NWV8, whole entry, looked up: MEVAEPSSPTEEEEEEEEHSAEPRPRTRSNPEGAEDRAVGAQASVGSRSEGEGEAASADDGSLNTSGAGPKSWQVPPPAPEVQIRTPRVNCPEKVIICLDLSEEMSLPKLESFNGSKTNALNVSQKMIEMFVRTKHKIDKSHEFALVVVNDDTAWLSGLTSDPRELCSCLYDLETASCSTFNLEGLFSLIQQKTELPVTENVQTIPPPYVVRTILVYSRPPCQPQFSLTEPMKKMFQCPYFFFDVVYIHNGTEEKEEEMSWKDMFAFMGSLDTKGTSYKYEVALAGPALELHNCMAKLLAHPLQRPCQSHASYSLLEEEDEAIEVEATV
UniProt Q9BXK5, whole entry, looked up: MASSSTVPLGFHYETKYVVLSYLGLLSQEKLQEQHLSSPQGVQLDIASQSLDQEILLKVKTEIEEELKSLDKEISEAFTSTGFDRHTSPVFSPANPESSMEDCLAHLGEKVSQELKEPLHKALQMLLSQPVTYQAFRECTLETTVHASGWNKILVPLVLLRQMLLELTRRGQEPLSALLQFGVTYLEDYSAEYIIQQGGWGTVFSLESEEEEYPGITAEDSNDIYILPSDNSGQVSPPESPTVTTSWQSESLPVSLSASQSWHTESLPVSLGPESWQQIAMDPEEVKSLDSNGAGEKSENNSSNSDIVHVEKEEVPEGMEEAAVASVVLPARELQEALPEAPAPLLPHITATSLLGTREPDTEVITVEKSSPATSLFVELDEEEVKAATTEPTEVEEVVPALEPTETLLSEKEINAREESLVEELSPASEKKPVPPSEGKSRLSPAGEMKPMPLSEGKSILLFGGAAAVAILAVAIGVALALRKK
UniProt Q53S33: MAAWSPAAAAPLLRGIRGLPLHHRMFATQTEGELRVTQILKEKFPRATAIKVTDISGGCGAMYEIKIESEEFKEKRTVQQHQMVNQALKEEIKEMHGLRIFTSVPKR
UniProt Q96G01: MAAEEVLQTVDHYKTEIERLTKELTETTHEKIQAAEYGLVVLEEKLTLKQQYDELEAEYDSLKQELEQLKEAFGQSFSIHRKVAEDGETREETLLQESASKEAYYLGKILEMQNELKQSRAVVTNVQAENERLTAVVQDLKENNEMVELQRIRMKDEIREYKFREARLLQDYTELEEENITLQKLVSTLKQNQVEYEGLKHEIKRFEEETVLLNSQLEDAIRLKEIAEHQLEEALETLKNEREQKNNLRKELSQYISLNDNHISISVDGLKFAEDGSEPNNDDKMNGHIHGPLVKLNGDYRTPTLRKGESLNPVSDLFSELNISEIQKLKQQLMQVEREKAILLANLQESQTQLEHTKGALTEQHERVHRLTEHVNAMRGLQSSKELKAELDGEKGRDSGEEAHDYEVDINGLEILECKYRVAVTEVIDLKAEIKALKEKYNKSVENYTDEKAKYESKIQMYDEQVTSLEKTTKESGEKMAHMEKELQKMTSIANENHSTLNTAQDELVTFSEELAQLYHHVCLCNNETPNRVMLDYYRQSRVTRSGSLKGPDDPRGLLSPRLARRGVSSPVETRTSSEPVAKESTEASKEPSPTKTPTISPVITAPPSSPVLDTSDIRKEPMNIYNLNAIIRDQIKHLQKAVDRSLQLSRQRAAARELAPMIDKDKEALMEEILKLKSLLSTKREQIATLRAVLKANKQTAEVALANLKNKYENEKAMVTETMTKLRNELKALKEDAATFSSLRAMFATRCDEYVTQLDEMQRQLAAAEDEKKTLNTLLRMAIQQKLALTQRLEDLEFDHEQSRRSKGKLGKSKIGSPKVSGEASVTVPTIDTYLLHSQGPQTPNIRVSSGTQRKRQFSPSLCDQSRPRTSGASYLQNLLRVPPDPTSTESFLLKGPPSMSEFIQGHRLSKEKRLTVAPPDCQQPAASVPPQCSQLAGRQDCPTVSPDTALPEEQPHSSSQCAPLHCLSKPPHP
UniProt P78537: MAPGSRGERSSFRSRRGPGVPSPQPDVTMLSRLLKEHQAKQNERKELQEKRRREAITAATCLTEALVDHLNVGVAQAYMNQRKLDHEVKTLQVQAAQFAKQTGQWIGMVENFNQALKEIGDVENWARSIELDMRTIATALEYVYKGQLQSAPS
UniProt Q14457, whole entry, looked up: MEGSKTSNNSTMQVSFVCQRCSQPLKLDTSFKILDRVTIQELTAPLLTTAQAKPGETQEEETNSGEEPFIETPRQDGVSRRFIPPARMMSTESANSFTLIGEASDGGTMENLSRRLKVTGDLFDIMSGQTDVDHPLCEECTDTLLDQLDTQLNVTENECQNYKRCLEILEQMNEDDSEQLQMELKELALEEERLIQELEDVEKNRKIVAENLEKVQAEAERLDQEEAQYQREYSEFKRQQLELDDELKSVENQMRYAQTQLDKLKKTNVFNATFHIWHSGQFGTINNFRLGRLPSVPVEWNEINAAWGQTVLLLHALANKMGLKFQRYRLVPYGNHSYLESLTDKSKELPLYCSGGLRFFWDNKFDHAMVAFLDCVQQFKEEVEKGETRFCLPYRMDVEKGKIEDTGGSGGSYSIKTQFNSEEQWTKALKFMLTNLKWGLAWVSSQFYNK
UniProt O15155: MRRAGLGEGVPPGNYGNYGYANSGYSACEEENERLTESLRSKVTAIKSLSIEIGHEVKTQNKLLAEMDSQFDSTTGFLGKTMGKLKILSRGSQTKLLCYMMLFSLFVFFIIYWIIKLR
UniProt Q9UL45: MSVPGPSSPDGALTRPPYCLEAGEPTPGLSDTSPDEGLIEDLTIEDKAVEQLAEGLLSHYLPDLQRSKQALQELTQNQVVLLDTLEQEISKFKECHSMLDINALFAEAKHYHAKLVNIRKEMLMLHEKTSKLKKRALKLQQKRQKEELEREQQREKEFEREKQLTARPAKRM
UniProt Q96GS4: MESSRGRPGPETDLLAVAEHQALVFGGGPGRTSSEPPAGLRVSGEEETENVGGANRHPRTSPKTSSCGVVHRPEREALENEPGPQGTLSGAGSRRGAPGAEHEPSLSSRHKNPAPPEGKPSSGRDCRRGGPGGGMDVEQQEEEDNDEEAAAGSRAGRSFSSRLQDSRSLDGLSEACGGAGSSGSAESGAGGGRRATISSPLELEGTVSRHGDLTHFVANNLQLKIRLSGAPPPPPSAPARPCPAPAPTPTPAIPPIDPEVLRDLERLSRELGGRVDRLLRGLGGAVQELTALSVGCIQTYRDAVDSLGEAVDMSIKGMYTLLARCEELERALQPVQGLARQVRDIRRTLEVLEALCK

Assays:
Experiment in all cases: log2 fold change, soluble protein after heating vs DMSO (PISA); higher = thermal stabilisation; K562 lysate, 10 uM; active = over 0.2 and 3.5 SD of the protein, either way, in both replicates (recomputed)
alvocidib = compound: CN1CC[C@H](c2c(O)cc(O)c3c(=O)cc(-c4ccccc4Cl)oc23)[C@H](O)C1 [alvocidib]
Procedure, shortened: (§1)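 To prepare the extract, K562 pellets were dounce-homogenised in PBS pH 7.4 with 1 mM MgCl2, giving crude material at 1 mg/mL protein. This was treated with 10 μM compound for 30 min, then heated in aliquots for 3 min over 48°C-58°C before pooling and addition of NP-40 to 0.5% at 4°C. Centrifugation at 21,000xg for 90 min left soluble protein in the supernatant, which TMTpro 16plex LC-MS/MS quantified with equalised channel sums. Results are log-two fold changes in thermal stability compared with solvent controls, from duplicates.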

Tubastatin A = compound: CN1CCc2c(c3ccccc3n2Cc2ccc(C(=O)NO)cc2)C1 [Tubastatin A]
Procedure, shortened: as §1

[1] = compound: CNC(=O)C1=CC=CC=C1NC2=NC(=NC=C2Cl)NC3=C(C=C(C=C3)N4CCOCC4)OC
Procedure, shortened: as §1

defactinib = compound: CNC(=O)c1ccc(Nc2ncc(C(F)(F)F)c(NCc3nccnc3N(C)S(C)(=O)=O)n2)cc1 [defactinib]
Procedure, shortened: as §1

[2] = compound: CNc1nc(-c2ccc3c(N)n[nH]c3c2)cc(N2C[C@@H](C(=O)NC3CCCCC3)CC[C@H]2C)n1
Procedure, shortened: as §1

encorafenib = compound: COC(=O)N[C@@H](C)CNc1nccc(-c2cn(C(C)C)nc2-c2cc(Cl)cc(NS(C)(=O)=O)c2F)n1 [encorafenib]
Procedure, shortened: as §1

[3] = compound: COC(=O)[C@H](CCSC)NC(=O)C1=C(C=C(C=C1)NC[C@H](CS)N)C2=CC=CC=C2
Procedure, shortened: as §1

alisertib = compound: COc1cc(Nc2ncc3c(n2)-c2ccc(Cl)cc2C(c2c(F)cccc2OC)=NC3)ccc1C(=O)O [alisertib]
Procedure, shortened: as §1

[4] = compound: COc1cc2nc(-c3cc(F)ccc3O)nc(N[C@@H]3CNC[C@H]3C(C)(C)O)c2cc1OC
Procedure, shortened: as §1

gefitinib = compound: COc1cc2ncnc(Nc3ccc(F)c(Cl)c3)c2cc1OCCCN1CCOCC1 [gefitinib]
Procedure, shortened: as §1

Target | log2 fold change (alvocidib) | log2 fold change (Tubastatin A) | log2 fold change [1] | log2 fold change (defactinib) | log2 fold change [2] | log2 fold change (encorafenib) | log2 fold change [3] | log2 fold change (alisertib) | log2 fold change [4] | log2 fold change (gefitinib)
BICD2 isoform 2 (UniProt Q8TD16) | inactive: -0.005 | inactive: 0.039 | inactive: -0.001 | inactive: -0.035 | inactive: 0.022 | inactive: -0.001 | inactive: 0.01 | inactive: -0.008 | inactive: -0.003 | inactive: 0.015
BCKDHB (UniProt P21953) | inactive: 0.062 | inactive: 0.011 | inactive: 0.008 | inactive: -0.008 | inactive: -0.031 | inactive: -0.074 | inactive: 0.107 | inactive: -0.019 | inactive: -0.015 | inactive: -0.024
BAG6 isoform 3 (UniProt P46379) | inactive: 0.025 | inactive: -0.03 | inactive: 0.02 | inactive: 0.022 | inactive: -0.015 | inactive: 0.051 | inactive: -0.031 | inactive: -0.005 | inactive: -0.028 | inactive: -0.027
BCL2L2 isoform 2 (UniProt Q92843) | inactive: -0.018 | inactive: -0.038 | inactive: -0.036 | inactive: -0.011 | inactive: 0.003 | inactive: -0.015 | inactive: 0.068 | inactive: -0.019 | inactive: 0.003 | inactive: -0.025
BOLA2 (UniProt Q9H3K6) | inactive: 0.02 | inactive: 0.015 | inactive: -0.065 | inactive: 0.023 | inactive: -0.052 | inactive: 0.036 | inactive: -0.057 | inactive: -0.006 | inactive: 0.009 | inactive: -0.03
BRAT1 (UniProt Q6PJG6) | inactive: -0.018 | inactive: -0.143 | inactive: 0.031 | inactive: -0.046 | inactive: -0.041 | inactive: 0.01 | inactive: 0.024 | inactive: -0.008 | inactive: 0.018 | inactive: -0.007
BANF1 (UniProt O75531) | inactive: -0.069 | inactive: 0.127 | inactive: 0.003 | inactive: 0.036 | inactive: 0.035 | inactive: -0.016 | inactive: -0.045 | inactive: 0.052 | inactive: -0.005 | inactive: -0.042
BLOC1S4 (UniProt Q9NUP1) | inactive: 0.064 | inactive: 0.022 | inactive: 0.013 | inactive: 0.03 | inactive: 0.043 | inactive: -0.026 | inactive: 0.025 | inactive: -0.011 | inactive: -0.014 | inactive: -0.031
BRD8 isoform 2 (UniProt Q9H0E9) | inactive: -0.003 | inactive: -0.005 | inactive: 0.038 | inactive: 0.003 | inactive: 0.012 | inactive: 0.017 | inactive: -0.074 | inactive: -0.003 | inactive: -0.005 | inactive: 0.009
BRAF (UniProt P15056) | inactive: -0.019 | inactive: -0.071 | inactive: 0.016 | inactive: 0.067 | inactive: -0.016 | active: 0.984 | inactive: 0.043 | inactive: -0.021 | inactive: -0.019 | inactive: 0.045
BCAT2 (UniProt O15382) | inactive: -0.016 | inactive: 0.031 | inactive: 0.012 | inactive: -0.004 | inactive: 0.018 | inactive: -0.032 | inactive: -0.053 | inactive: 0.005 | inactive: 0.004 | inactive: 0.001
BLM (UniProt P54132) | inactive: 0.082 | inactive: -0.07 | inactive: 0.071 | inactive: 0.031 | inactive: 0.001 | inactive: 0.043 | inactive: 0.018 | inactive: -0.025 | inactive: -0.006 | inactive: -0.054
BCAP31 isoform 2 (UniProt P51572) | inactive: -0.03 | inactive: 0.038 | inactive: 0.018 | inactive: -0.013 | inactive: 0.026 | inactive: -0.017 | inactive: -0.039 | inactive: 0.014 | inactive: 0.022 | inactive: 0.015
BABAM1 (UniProt Q9NWV8) | inactive: -0.016 | inactive: -0.161 | inactive: 0.011 | inactive: -0.019 | inactive: -0.026 | inactive: -0.025 | inactive: 0.041 | inactive: -0.008 | inactive: -0.008 | inactive: 0.009
BCL2L13 (UniProt Q9BXK5) | inactive: -0.044 | inactive: 0.029 | inactive: 0.006 | inactive: 0.02 | inactive: -0.007 | inactive: -0.023 | inactive: 0.032 | inactive: -0.023 | inactive: -0.007 | inactive: 0.019
BCL7C isoform 2 (UniProt Q8WUZ0) | inactive: -0.011 | inactive: -0.094 | inactive: 0.029 | inactive: -0.081 | inactive: 0.013 | inactive: -0.012 | inactive: 0.031 | inactive: 0.068 | inactive: 0.025 | inactive: -0.008
BOLA3 (UniProt Q53S33) | inactive: -0.023 | inactive: 0.069 | inactive: -0.015 | inactive: -0.001 | inactive: -0.027 | inactive: -0.001 | inactive: -0.026 | inactive: -0.03 | inactive: 0.025 | inactive: 0.009
BICD1 (UniProt Q96G01) | inactive: -0.01 | inactive: 0.012 | inactive: 0.017 | inactive: 0.011 | inactive: 0.012 | inactive: -0.016 | inactive: 0.067 | inactive: 0.025 | inactive: 0.009 | inactive: -0.035
BLOC1S1 (UniProt P78537) | inactive: 0.032 | inactive: 0.06 | inactive: 0.038 | inactive: 0.04 | inactive: 0.032 | inactive: 0.074 | inactive: -0.094 | inactive: 0.083 | inactive: -0.004 | inactive: 0.006
BECN1 (UniProt Q14457) | inactive: 0.001 | inactive: -0.024 | inactive: 0 | inactive: -0.025 | inactive: -0.022 | inactive: -0.032 | inactive: -0.007 | inactive: -0.016 | inactive: -0.013 | inactive: 0.03
BTF3 (UniProt P20290) | inactive: 0.04 | inactive: 0.036 | inactive: 0.006 | inactive: 0.004 | inactive: -0.038 | inactive: 0.004 | inactive: -0.016 | inactive: 0.025 | inactive: 0.013 | inactive: 0.003
BIRC5 (UniProt O15392) | inactive: 0.004 | inactive: 0.035 | inactive: 0.108 | inactive: -0.015 | inactive: -0.022 | inactive: 0.117 | inactive: 0.005 | inactive: 0.104 | inactive: -0.105 | inactive: -0.052
BET1 (UniProt O15155) | inactive: 0.07 | inactive: -0.038 | inactive: 0.033 | inactive: 0.058 | inactive: 0.027 | inactive: -0.062 | active: -0.214 | inactive: -0.023 | inactive: -0.022 | inactive: -0.045
BABAM2 (UniProt Q9NXR7) | inactive: -0.057 | inactive: 0.001 | inactive: -0.006 | inactive: -0.008 | inactive: -0.029 | inactive: 0.011 | inactive: 0.03 | inactive: 0.009 | inactive: 0.014 | inactive: -0.006
BMS1 (UniProt Q14692) | inactive: -0.016 | inactive: -0.024 | inactive: 0.042 | inactive: 0.053 | inactive: 0.007 | inactive: 0.075 | inactive: 0.01 | inactive: 0.035 | inactive: -0.01 | inactive: -0.042
BCAR1 isoform 6 (UniProt P56945) | inactive: 0.074 | inactive: -0.009 | inactive: 0.009 | inactive: -0.032 | inactive: 0.012 | inactive: 0.018 | inactive: 0.014 | inactive: 0.009 | inactive: 0.08 | inactive: 0.065
BLMH (UniProt Q13867) | inactive: -0.031 | inactive: 0.006 | inactive: 0.005 | inactive: -0.015 | inactive: -0.024 | inactive: -0.029 | inactive: 0.037 | inactive: 0.013 | inactive: -0.039 | inactive: 0.03
BLOC1S6 (UniProt Q9UL45) | inactive: -0.028 | inactive: 0.033 | inactive: 0.051 | inactive: 0.014 | inactive: 0.082 | inactive: 0.147 | inactive: 0.056 | inactive: -0.22 | inactive: -0.036 | inactive: 0.047
BORCS6 (UniProt Q96GS4) | inactive: 0.024 | inactive: -0.01 | inactive: -0.01 | inactive: 0.003 | inactive: -0.04 | inactive: 0.046 | inactive: -0.015 | inactive: -0.008 | inactive: -0.006 | inactive: 0.061

Whole records, quoted from the list. Values in the order: log2 fold change (alvocidib)	log2 fold change (Tubastatin A)	log2 fold change [1]	log2 fold change (defactinib)	log2 fold change [2]	log2 fold change (encorafenib)	log2 fold change [3]	log2 fold change (alisertib)	log2 fold change [4]	log2 fold change (gefitinib)
BECN1 (UniProt Q14457) as listed: inactive: 0.001	inactive: -0.024	inactive: 0	inactive: -0.025	inactive: -0.022	inactive: -0.032	inactive: -0.007	inactive: -0.016	inactive: -0.013	inactive: 0.03
BICD1 (UniProt Q96G01) as listed: inactive: -0.01	inactive: 0.012	inactive: 0.017	inactive: 0.011	inactive: 0.012	inactive: -0.016	inactive: 0.067	inactive: 0.025	inactive: 0.009	inactive: -0.035
